From PubChem BioAssay (NCATS)
For part of these data: Only results without a clear call are listed here; the source files them as inconclusive. For part of these data: Potencies of inconclusive entries are doubtful fits and often do not repeat. For part of these data: Inconclusive means that the source gave no clear call. Such entries were picked first, then a sample of the others. Active and inactive are the calls of the source. Unless noted, calls follow the shape of the dose curve; as a rule, active = well fitted curve in the direction sought with a large enough effect; inconclusive = small, poorly fitted or top-dose-only effect, or another doubt; inactive = no such curve, though single readings can be large; an effect the other way counts as inactive or inconclusive.

Protein sequences, listed by entry. Tags and fused reporters are not part of them.
UniProt P08684, whole entry, looked up: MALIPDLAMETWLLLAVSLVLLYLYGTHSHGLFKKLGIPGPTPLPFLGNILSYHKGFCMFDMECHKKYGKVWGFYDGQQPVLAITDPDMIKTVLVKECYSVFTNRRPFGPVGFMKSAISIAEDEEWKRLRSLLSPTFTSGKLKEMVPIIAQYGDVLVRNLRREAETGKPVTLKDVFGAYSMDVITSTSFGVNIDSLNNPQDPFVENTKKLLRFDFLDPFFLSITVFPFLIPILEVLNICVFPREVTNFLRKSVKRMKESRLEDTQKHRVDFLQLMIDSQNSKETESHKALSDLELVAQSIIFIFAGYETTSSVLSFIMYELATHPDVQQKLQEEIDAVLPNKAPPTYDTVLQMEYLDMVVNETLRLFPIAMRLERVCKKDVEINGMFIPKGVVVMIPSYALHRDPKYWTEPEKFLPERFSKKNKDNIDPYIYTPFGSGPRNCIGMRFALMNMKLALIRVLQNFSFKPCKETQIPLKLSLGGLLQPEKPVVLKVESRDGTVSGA
UniProt P10635, whole entry, looked up: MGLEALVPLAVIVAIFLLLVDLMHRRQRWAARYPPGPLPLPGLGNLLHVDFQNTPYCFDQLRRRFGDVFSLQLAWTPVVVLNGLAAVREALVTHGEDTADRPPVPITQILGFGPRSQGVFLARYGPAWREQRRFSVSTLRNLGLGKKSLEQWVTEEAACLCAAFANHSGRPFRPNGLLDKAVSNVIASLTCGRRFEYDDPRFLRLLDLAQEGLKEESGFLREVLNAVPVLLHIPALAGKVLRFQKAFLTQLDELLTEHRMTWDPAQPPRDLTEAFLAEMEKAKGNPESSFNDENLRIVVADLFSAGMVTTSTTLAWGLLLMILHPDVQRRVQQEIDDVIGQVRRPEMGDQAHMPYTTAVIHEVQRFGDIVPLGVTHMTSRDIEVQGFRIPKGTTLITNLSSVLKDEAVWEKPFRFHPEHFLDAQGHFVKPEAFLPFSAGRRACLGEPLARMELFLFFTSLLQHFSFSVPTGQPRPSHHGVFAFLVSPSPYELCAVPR
UniProt P33261, whole entry, looked up: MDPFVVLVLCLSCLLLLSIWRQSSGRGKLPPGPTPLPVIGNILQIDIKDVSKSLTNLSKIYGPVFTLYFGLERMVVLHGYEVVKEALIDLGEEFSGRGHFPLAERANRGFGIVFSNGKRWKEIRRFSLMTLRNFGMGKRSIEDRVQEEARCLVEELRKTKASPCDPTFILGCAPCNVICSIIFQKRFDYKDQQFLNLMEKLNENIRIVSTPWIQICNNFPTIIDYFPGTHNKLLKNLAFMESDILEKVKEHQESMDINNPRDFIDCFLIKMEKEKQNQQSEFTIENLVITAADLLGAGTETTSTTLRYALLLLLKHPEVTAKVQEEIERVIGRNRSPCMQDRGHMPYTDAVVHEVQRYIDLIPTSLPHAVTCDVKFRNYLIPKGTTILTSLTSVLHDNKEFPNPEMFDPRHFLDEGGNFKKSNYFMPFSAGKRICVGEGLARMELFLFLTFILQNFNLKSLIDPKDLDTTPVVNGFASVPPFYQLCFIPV

How the values were obtained:
[1] = Quantitative High-Throughput drug screen in 47 multiple myeloma cell lines against the NCATS MIPE library collection: XG6_PLB cell viability assay (AID 1919865); settings: XG6 myeloma viability, CellTiter-Glo ATP luminescence, 48 h; viability (% of control): at 45.8 µM (top of the series); also: nearly all actives have a fitted effect of over 40% in size; also: potency is read from the fitted curve at half-maximal effect
Procedure, shortened: (§1)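 Cells were exposed to library compounds for 48 hours, after which ATP was measured by CellTiter-Glo. Signal was taken as median relative luminescence units.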

[2] = Quantitative High-Throughput drug screen in 47 multiple myeloma cell lines against the NCATS MIPE library collection: XG1_PLB cell viability assay (AID 1919866); settings: CellTiter-Glo ATP, 48 h; viability: at 45.8 µM (top of the series); also: nearly all actives have a fitted effect of over 35% in size; also: potency is read from the fitted curve at half-maximal effect
Procedure, shortened: as §1

[3] = Quantitative High-Throughput drug screen in 47 multiple myeloma cell lines against the NCATS MIPE library collection: VP6_DJ cell viability assay (AID 1919867); settings: ATP luminescence, 48 h; viability (% of DMSO): at 45.8 µM (top of the series); also: nearly all actives have a fitted effect of over 40% in size; also: potency is read from the fitted curve at half-maximal effect
Procedure, shortened: as §1

[4] = Quantitative High-Throughput drug screen in 47 multiple myeloma cell lines against the NCATS MIPE library collection: UTMC2_PLB cell viability assay (AID 1919868); settings: CellTiter-Glo ATP luminescence, 48 h; viability (% of DMSO control): at 45.8 µM (top of the series); also: nearly all actives have a fitted effect of over 55% in size; also: potency is read from the fitted curve at half-maximal effect
Procedure, shortened: as §1

[5] = Quantitative High-Throughput drug screen in 47 multiple myeloma cell lines against the NCATS MIPE library collection: RPMI8226_ATCC cell viability assay (AID 1919871); also: nearly all actives have a fitted effect of over 30% in size; also: potency is read from the fitted curve at half-maximal effect
Procedure, shortened: as §1

[6] = Quantitative High-Throughput drug screen in 47 multiple myeloma cell lines against the NCATS MIPE library collection: OPM2_DSMZ cell viability assay (AID 1919872); also: nearly all actives have a fitted effect of over 30% in size; also: potency is read from the fitted curve at half-maximal effect
Procedure, shortened: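 Myeloma cell lines, 500 cells per well, exposed to MIPE 4.0 library compounds for 48 h at 37C, 5% CO2. Viability from ATP by CellTiter-Glo luminescence; normalised to DMSO (100%) and media-only (0%) wells.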

[7] = Quantitative High-Throughput drug screen in 47 multiple myeloma cell lines against the NCATS MIPE library collection: KMS11_JCRBsus cell viability assay (AID 1919873); settings: KMS11 myeloma viability, CellTiter-Glo ATP luminescence, 48 h; viability (% of control): at 45.8 µM (top of the series); also: nearly all actives have a fitted effect of over 50% in size; also: potency is read from the fitted curve at half-maximal effect
Procedure, shortened: as §1

[8] = qHTS for identification of novel therapeutic agents for treatment of microphthalmiaassociated transcription factor (MiT) renal cell carcinoma (RCC) (AID 1963991; calls by dose curve; also: potency is read from the fitted curve at half-maximal effect); settings: TFE3-RCC UOK109 viability, CellTiter-Glo, 48 h; active = Z-AUC below -0.8 in all three lines
Procedure, shortened: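 Viability of three TFE3-fusion renal carcinoma lines measured by CellTiter-Glo after 48 h treatment with each of 1912 compounds at 11 concentrations. Responses scaled between DMSO (100%) and empty wells (0%) before curve fitting.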

[9] = Quantitative High-Throughput drug screen in 47 multiple myeloma cell lines against the NCATS MIPE library collection: PE2_PLB cell viability assay (AID 1919869); settings: PE2_PLB myeloma cells viability, ATP luminescence, 48 h; viability (% of control): at 45.8 µM (top of the series); also: nearly all actives have a fitted effect of over 35% in size; also: potency is read from the fitted curve at half-maximal effect
Procedure, shortened: as §1

[10] = Quantitative High-Throughput drug screen in 47 multiple myeloma cell lines against the NCATS MIPE library collection: KMS28BM_JCRB cell viability assay (AID 1919874); also: nearly all actives have a fitted effect of over 35% in size; also: potency is read from the fitted curve at half-maximal effect
Procedure, shortened: as §1

[11] = Quantitative High-Throughput drug screen in 47 multiple myeloma cell lines against the NCATS MIPE library collection: PCM6_Riken cell viability assay (AID 1919870); settings: CellTiter-Glo ATP, 48 h; viability (% of control): at 45.8 µM (top of the series); also: nearly all actives have a fitted effect of over 30% in size; also: potency is read from the fitted curve at half-maximal effect
Procedure, shortened: as §1

[12] = biological target: Cytochrome P450 3A4 (Homo sapiens) (UniProt P08684); assay: qHTS for inhibitors of CYP3A4 against the NCATS DSHEA and TCM libraries (AID 1919971); settings: recombinant CYP3A4 enzyme activity, luminescence qHTS; also: potency is read from the fitted curve at half-maximal effect
Procedure, shortened: (§2)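 Each CYP isoform and its pro-luciferin substrate, at isoform-specific final concentrations, were preincubated 15 min at RT with substances. NADPH regeneration solution (1x) started a 30-45 min reaction, and P450-Glo luminescence was read.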

[13] = biological target: Cytochrome P450 2D6 (Homo sapiens) (UniProt P10635); assay: qHTS for inhibitors of CYP2D6 against the NCATS DSHEA and TCM libraries (AID 1919972); settings: CYP2D6 enzymatic inhibition, luminescence qHTS; also: potency is read from the fitted curve at half-maximal effect
Procedure, shortened: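 CYP2D6 enzyme with pro-luciferin substrate in manufacturer buffer (typically 100 mM KPO4), preincubated 15 min RT with substances (most at 19.5 nM upward); NADPH regeneration system (1x) started 30–45 min RT reaction; P450-Glo luminescence read after 30 min; quinidine as intraplate control.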

[14] = biological target: Cytochrome P450 2C19 (Homo sapiens) (UniProt P33261); assay: qHTS for inhibitors of CYP2C19 against the NCATS DSHEA and TCM libraries (AID 1919974); settings: CYP2C19 enzyme inhibition, luminescence qHTS;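 also: luminescence from luciferin released by CYP2C19 oxidation of a pro-luciferin substrate; potency is read from the fitted curve at half-maximal effect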
Procedure, shortened: as §2

[15] = KB-8-5-11 P-gp reporter qHTS against the NCATS DSHEA and TCM libraries (AID 1919977); also: potency is read from the fitted curve at half-maximal effect
Procedure, shortened: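 CellTiter-Glo luminescence measured viability after ~72 h exposure (37C, 5% CO2) of KB-8-5-11 cervical adenocarcinoma cells overexpressing P-gp. Colchicine was omitted during assay. Substances were tested as titrations.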

[16] = qHTS Counterscreen for compound interference against the NCATS DSHEA and TCM libraries (AID 1919978); settings: firefly luciferase detection reagent interference, luminescence
Procedure, shortened: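 With 1 uM D-luciferin or phosphate buffer only, compounds at final 19.5 nM–39.8 uM were incubated for 15 min at room temperature. Luciferase detection reagent was then added, and luminescence was measured after a further 30 min at room temperature.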

O=C(CCN1CCN(C(=O)OCc2cc(Cl)cc(Cl)c2)CC1)c1ccc2[nH]c(=O)oc2c1
Potency [1]: inactive | Potency [2]: inconclusive: 0.469 µM [cytotoxic, full curve, poor fit] | Potency [3]: inactive | Potency [4]: inconclusive: 0.003 µM [rising, full curve, poor fit] | Potency [5]: inactive | Potency [6]: inconclusive: 0.001 µM [cytotoxic] | Potency [7]: inactive | Potency [8]: inconclusive: 16.6 µM [falling, partial curve, poor fit]

O=C(NNC(=O)c1ccc(CNS(=O)(=O)c2ccc(F)c(Cl)c2)cc1)c1ccccc1
Potency [1]: inactive | Potency [2]: inconclusive: 29.6 µM [cytotoxic, single point] | Potency [3]: inactive | Potency [4]: inactive | Potency [9]: inactive | Potency [5]: inactive | Potency [6]: inactive | Potency [7]: inactive | Potency [10]: inactive

CCCCC(CC)COC(=O)C(C#N)=C(c1ccccc1)c1ccccc1 (centres undefined)
Potency [1]: inconclusive: 0.0023 µM [rising, full curve, poor fit] | Potency [2]: inactive | Potency [3]: inactive | Potency [4]: inconclusive: 0.001 µM | Potency [11]: inactive | Potency [5]: inconclusive: 37.2 µM [cytotoxic, single point] | Potency [6]: inactive | Potency [8]: inconclusive: 13.2 µM [falling, partial curve]

C[C@@H]1CCN(C(=O)CC#N)C[C@H]1N(C)c1ncnc2[nH]ccc12
Potency [1]: inconclusive: 5.9 µM [cytotoxic, full curve] | Potency [2]: inconclusive: 0.469 µM [cytotoxic, full curve, poor fit] | Potency [3]: inconclusive: 1.18 µM [cytotoxic, full curve, poor fit] | Potency [4]: inactive | Potency [9]: inconclusive: 1.66 µM [cytotoxic, full curve] | Potency [5]: inconclusive: 11.8 µM [cytotoxic, single point] | Potency [7]: inconclusive: 2.35 µM [cytotoxic, partial curve, poor fit] | Potency [10]: inconclusive: 0.0047 µM [cytotoxic, full curve, poor fit]

COc1cc2nc(N3CCN(C(=O)C4CCCO4)CC3)nc(N)c2cc1OC (centres undefined)
Potency [1]: inconclusive: 26.4 µM [cytotoxic, single point] | Potency [2]: inconclusive: 37.2 µM [cytotoxic, single point] | Potency [3]: inconclusive: 33.2 µM [cytotoxic, single point] | Potency [4]: inconclusive: 0.0074 µM [rising, full curve, poor fit] | Potency [9]: inactive | Potency [11]: inconclusive: 0.001 µM | Potency [5]: inactive | Potency [7]: inconclusive: 11.8 µM [cytotoxic, single point] | Potency [10]: inconclusive: 11.8 µM [cytotoxic, single point] | Potency [8]: inconclusive: 23.5 µM

CCC(CC)[C@H](NC(C)=O)[C@@H]1[C@H](O)[C@@H](C(=O)O)C[C@@H]1N=C(N)N
Potency [1]: inactive | Potency [2]: inactive | Potency [3]: active: 4.18 µM | Potency [4]: inconclusive: 0.0118 µM [cytotoxic, full curve, poor fit] | Potency [9]: inactive | Potency [7]: inactive | Potency [10]: inconclusive: 37.2 µM [cytotoxic, partial curve, poor fit]

CC(=NNC(=S)N1CCC1)c1ccccn1
Potency [1]: inconclusive: 0.0019 µM [cytotoxic, full curve] | viability [2]: inconclusive: 5.93% [cytotoxic] | viability (% of DMSO) [3]: inconclusive: 9.96% [cytotoxic] | Potency [4]: inactive | viability (% of control) [11]: inconclusive: 4.71% [cytotoxic] | Potency [7]: active: 0.0033 µM | Potency [8]: active: 0.00332 µM

OC[C@H]1O[C@@H](n2cnc3c2NC=NC[C@@H]3O)C[C@H]1O
Potency [1]: inconclusive: 16.6 µM [cytotoxic, partial curve] | Potency [2]: inconclusive: 37.2 µM [cytotoxic, single point] | Potency [4]: inactive | Potency [11]: inconclusive: 20.9 µM [cytotoxic, single point] | Potency [5]: inactive | Potency [7]: inconclusive: 10.5 µM [cytotoxic, partial curve, poor fit] | Potency [10]: inconclusive: 29.6 µM [cytotoxic, single point]

CCCS(=O)c1ccc2nc(NC(=O)OC)[nH]c2c1 (centres undefined)
Potency [1]: inconclusive: 16.6 µM [cytotoxic, partial curve] | Potency [2]: inconclusive: 16.6 µM [cytotoxic, partial curve] | Potency [4]: inconclusive: 0.0012 µM [rising, full curve, poor fit] | Potency [9]: inconclusive: 16.6 µM [cytotoxic, partial curve] | Potency [11]: inconclusive: 26.4 µM [cytotoxic, single point] | Potency [5]: inconclusive: 33.2 µM [cytotoxic, single point] | Potency [10]: inconclusive: 23.5 µM [cytotoxic, partial curve, poor fit] | Potency [8]: inconclusive: 18.7 µM [falling, single point]

CN(C)c1cc(NC(=O)CNC(C)(C)C)c(O)c2c1C[C@@H]1C[C@H]3[C@H](N(C)C)C(=O)C(C(N)=O)=C(O)[C@@]3(O)C(=O)C1=C2O
Potency [1]: inconclusive: 6.62 µM [cytotoxic, partial curve, poor fit] | Potency [2]: inactive | Potency [3]: inconclusive: 10.5 µM [cytotoxic, partial curve, poor fit] | Potency [4]: active: 13.2 µM | Potency [7]: inactive | Potency [10]: inactive

Cc1cc(O)c2c(c1)C(=O)c1cc(O)cc(O)c1C2=O
Potency [1]: inconclusive: 0.0033 µM [cytotoxic, full curve, poor fit] | Potency [2]: inactive | Potency [3]: inactive | Potency [9]: inconclusive: 5.9 µM [cytotoxic, single point] | Potency [11]: inconclusive: 0.0021 µM [rising, full curve, poor fit] | Potency [6]: inactive | Potency [10]: inactive | Potency [12]: active: 10 µM | Potency [13]: active: 22.4 µM | Potency [14]: active: 22.4 µM | Potency [15]: inconclusive: 22.4 µM [inhibitor, single point] | Potency [16]: inconclusive: 28.2 µM [inhibitor, partial curve, poor fit] | Potency [8]: inconclusive: 6.62 µM [falling, full curve]

CO[C@H]1C[C@@H]2CC[C@@H](C)[C@@](O)(O2)C(=O)C(=O)N2CCCC[C@@H]2C(=O)O[C@H]([C@H](C)C[C@@H]2CC[C@H](OCCO)[C@H](OC)C2)CC(=O)[C@H](C)C=C(C)[C@@H](O)[C@@H](OC)C(=O)[C@H](C)C[C@H](C)C=CC=CC=C1C
Potency [1]: inconclusive: 0.0148 µM [cytotoxic, full curve] | Potency [2]: inconclusive: 0.0935 µM [cytotoxic, full curve] | Potency [3]: inconclusive: 0.526 µM [cytotoxic, full curve] | Potency [11]: inconclusive: 13.2 µM [cytotoxic, partial curve] | Potency [6]: inconclusive: 10.5 µM [cytotoxic, partial curve] | Potency [7]: inconclusive: 2.35 µM [cytotoxic, partial curve, poor fit] | Potency [10]: inconclusive: 6.62 µM [cytotoxic, partial curve] | Potency [8]: inconclusive: 10.5 µM [falling, partial curve, poor fit]

O=C(O)c1cccnc1Nc1cccc(C(F)(F)F)c1
Potency [1]: inactive | Potency [2]: inactive | Potency [4]: inactive | Potency [9]: inconclusive: 20.9 µM [cytotoxic, partial curve, poor fit] | Potency [11]: inactive | Potency [7]: inactive

CN1C(=O)C(Cc2c[nH]c3ccccc23)NC1=S (centres undefined)
Potency [1]: inactive | Potency [2]: inactive | Potency [3]: active: 7.43 µM | Potency [5]: inactive | Potency [7]: inconclusive: 0.0053 µM [cytotoxic, full curve, poor fit]

COc1ccc(C=CC(=O)Nc2ccccc2C(=O)O)cc1OC
Potency [1]: inconclusive: 1.18 µM [cytotoxic, full curve, poor fit] | Potency [2]: active: 6.62 µM | Potency [3]: inconclusive: 0.209 µM [cytotoxic, full curve, poor fit] | Potency [7]: inconclusive: 3.72 µM [cytotoxic, full curve, poor fit] | Potency [10]: inconclusive: 0.0033 µM [cytotoxic, full curve, poor fit]

COC(=O)Nc1nc2ccc(Sc3ccccc3)cc2[nH]1
Potency [1]: inconclusive: 0.833 µM [cytotoxic, full curve] | Potency [2]: inconclusive: 0.296 µM [cytotoxic, full curve] | Potency [4]: active: 2.09 µM | Potency [9]: active: 1.18 µM | Potency [11]: inconclusive: 3.32 µM [cytotoxic, full curve] | Potency [8]: inconclusive: 5.9 µM [falling, full curve]

CN(C(Cc1ccc(OS(=O)(=O)c2cccc3cnccc23)cc1)C(=O)N1CCN(c2ccccc2)CC1)S(=O)(=O)c1cccc2cnccc12 (centres undefined)
Potency [1]: active: 13.2 µM | Potency [2]: inconclusive: 16.6 µM [cytotoxic, partial curve] | Potency [4]: active: 6.62 µM | Potency [9]: inconclusive: 8.33 µM [cytotoxic, partial curve] | Potency [11]: inconclusive: 23.5 µM [cytotoxic, single point] | Potency [6]: inconclusive: 8.33 µM [cytotoxic, full curve] | Potency [7]: inconclusive: 7.43 µM [cytotoxic, full curve] | Potency [8]: inconclusive: 18.7 µM [falling, partial curve]
